Data from PMC1540706.
Results are given in words; binding and its absence hold for the method and conditions named. Binding seen in cells or lysates may run through a third protein. A yes stands for co-enrichment or nearness to the bait. Other partners may have been found.

Amino acid sequences for entries named in this document (tags omitted). Residues count along the entry.
UniProt P63010, residues 700-937: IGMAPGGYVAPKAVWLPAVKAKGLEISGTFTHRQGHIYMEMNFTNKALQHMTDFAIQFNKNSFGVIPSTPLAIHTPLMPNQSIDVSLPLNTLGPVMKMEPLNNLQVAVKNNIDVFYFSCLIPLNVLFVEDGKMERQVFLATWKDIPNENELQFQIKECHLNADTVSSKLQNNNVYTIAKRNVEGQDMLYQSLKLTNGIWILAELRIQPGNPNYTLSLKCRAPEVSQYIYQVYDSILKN

Experiments:
[1] = target: GST-human-β2-appendage (700–937) (human) (UniProt P63010); experiment: affinity purification with mass spectrometry; 30–100 μg GST-appendage on glutathione-sepharose beads in HeLa cell extract (150 mM NaCl, 20 mM HEPES pH 7.4, 2 mM DTT, NP40, 0.1% Tx-100), 1 h at 4 °C, 4 washes; Coomassie bands read by LC-MS/MS; only the target purified
[2] = target: GST-mouse-α-appendage (α-earL695–983) (mouse); experiment: as above
[3] = target: GST-mouse-α-appendage (α-earL695–983) (mouse); experiment: affinity purification with mass spectrometry; GST-appendages on beads in rat brain or liver extract (cytosol); LC-MS/MS (Figure S1); only the target purified

Binder | binding [1] | binding [2] | binding [3]
Scy1-like1 (HeLa) (protein, UniProt Q96KG9-1 1-808) MWFFARDPVRDFPFELIPEPPEGGLPGPWALHRGRKKATGSPVSIFVYDVKPGAEEQTQVAKAAFKRFKTLRHPNILAYIDGLETEKCLHVVTEAVTPLGIYLKARVEAGGLKELEISWGLHQIVKALSFLVNDCSLIHNNVCMAAVFVDRAGEWKLGGLDYMYSAQGNGGGPPRKGIPELEQYDPPELADSSGRVVREKWSADMWRLGCLIWEVFNGPLPRAAALRNPGKIPKTLVPHYCELVGANPKVRPNPARFLQNCRAPGGFMSNRFVETNLFLEEIQIKEPAEKQKFFQELSKSLDAFPEDFCRHKVLPQLLTAFEFGNAGAVVLTPLFKVGKFLSAEEYQQKIIPVVVKMFSSTDRAMRIRLLQQMEQFIQYLDEPTVNTQIFPHVVHGFLDTNPAIREQTVKSMLLLAPKLNEANLNVELMKHFARLQAKDEQGPIRCNTTVCLGKIGSYLSASTRHRVLTSAFSRATRDPFAPSRVAGVLGFAATHNLYSMNDCAQKILPVLCGLTVDPEKSVRDQAFKAIRSFLSKLESVSEDPTQLEEVEKDVHAASSPGMGGAAASWAGWAVTGVSSLTSKLIRSHPTTAPTETNIPQRPTPEGVPAPAPTPVPATPTTSGHWETQEEDKDTAEDSSTADRWDDEDWGSLEQEAESVLAQQDDWSTGGQVSRASQVSNSDHKSSKSPESDWSSWEAEGSWEQGWQEPSSQEPPPDGTRLASEYNWGGPESSDKGDPFATLSARPSTQPRPDSWGEDNWEGLETDSRQVKAELARKKREERRREMEAKRAERKVAKGPMKLGARKLD | binds | binds | 
Dab2/Disabled2 (protein, UniProt P98082 1-770) MSNEVETSATNGQPDQQAAPKAPSKKEKKKGPEKTDEYLLARFKGDGVKYKAKLIGIDDVPDARGDKMSQDSMMKLKGMAAAGRSQGQHKQRIWVNISLSGIKIIDEKTGVIEHEHPVNKISFIARDVTDNRAFGYVCGGEGQHQFFAIKTGQQAEPLVVDLKDLFQVIYNVKKKEEEKKKIEEASKAVENGSEALMILDDQTNKLKSGVDQMDLFGDMSTPPDLNSPTESKDILLVDLNSEIDTNQNSLRENPFLTNGITSCSLPRPTPQASFLPENAFSANLNFFPTPNPDPFRDDPFTQPDQSTPSSFDSLKSPDQKKENSSSSSTPLSNGPLNGDVDYFGQQFDQISNRTGKQEAQAGPWPFSSSQTQPAVRTQNGVSEREQNGFSVKSSPNPFVGSPPKGLSIQNGVKQDLESSVQSSPHDSIAIIPPPQSTKPGRGRRTAKSSANDLLASDIFAPPVSEPSGQASPTGQPTALQPNPLDLFKTSAPAPVGPLVGLGGVTVTLPQAGPWNTASLVFNQSPSMAPGAMMGGQPSGFSQPVIFGTSPAVSGWNQPSPFAASTPPPVPVVWGPSASVAPNAWSTTSPLGNPFQSNIFPAPAVSTQPPSMHSSLLVTPPQPPPRAGPPKDISSDAFTALDPLGDKEIKDVKEMFKDFQLRQPPAVPARKGEQTSSGTLSAFASYFNSKVGIPQENADHDDFDANQLLNKINEPPKPAPRQVSLPVTKSTDNAFENPFFKDSFGSSQASVASSQPVSSEMYRDPFGNPFA |  | binds | 
CALM (protein, UniProt Q13492 1-652) MSGQSLTDRITAAQHSVTGSAVSKTVCKATTHEIMGPKKKHLDYLIQCTNEMNVNIPQLADSLFERTTNSSWVVVFKSLITTHHLMVYGNERFIQYLASRNTLFNLSNFLDKSGLQGYDMSTFIRRYSRYLNEKAVSYRQVAFDFTKVKRGADGVMRTMNTEKLLKTVPIIQNQMDALLDFNVNSNELTNGVINAAFMLLFKDAIRLFAAYNEGIINLLEKYFDMKKNQCKEGLDIYKKFLTRMTRISEFLKVAEQVGIDRGDIPDLSQAPSSLLDALEQHLASLEGKKIKDSTAASRATTLSNAVSSLASTGLSLTKVDEREKQAALEEEQARLKALKEQRLKELAKKPHTSLTTAASPVSTSAGGIMTAPAIDIFSTPSSSNSTSKLPNDLLDLQQPTFHPSVHPMSTASQVASTWGDPFSATVDAVDDAIPSLNPFLTKSSGDVHLSISSDVSTFTTRTPTHEMFVGFTPSPVAQPHPSAGLNVDFESVFGNKSTNVIVDSGGFDELGGLLKPTVASQNQNLPVAKLPPSKLVSDDLDSSLANLVGNLGIGNGTTKNDVNWSQPGEKKLTGGSNWQPKVAPTTAWNAATMAPPVMAYPATTPTGMIGYGIPPQMGSVPVMTQPTLIYSQPVMRPPNPFGPVSGAQIQFM |  | binds | 
amphiphysin (brain extract) (protein, UniProt O08838 1-683) MADIKTGIFAKNVQKRLNRAQEKVLQKLGKADETKDEQFEEYVQNFKRQEAEGTRLQRELRGYLAAIKGMQEASMKLTESLHEVYEPDWYGREDVKMVGEKCDVLWEDFHQKLVDGSLLTLDTYLGQFPDIKNRIAKRSRKLVDYDSARHHLEALQSSKRKDESRISKAEEEFQKAQKVFEEFNVDLQEELPSLWSRRVGFYVNTFKNVSSLEAKFHKEIAVLCHKLYEVMTKLGDQHADKAFSIQGAPSDSGPLRIAKTPSPPEEASPLPSPTASPNHTLAPASPAPVRPRSPSQTRKGPPVPPLPKVTPTKELQQENIINFFEDNFVPEINVTTPSQNEVLEVKKEETLLDLDFDPFKPDVTPAGSAAATHSPMSQTLPWDLWTTSTDLVQPASGGSFNDFTQPQDTSLFTMQTDQNMAETEQALPTEPQAEEPPTTAAAPTAGLDLGLEMEEPKEEAAIPPGTDAGETVGTEGSTGEEAEAEKAALPAGEGESPEGAKIDVESTELASSESPQAAELEAGAPQEKVIPSVVIEPASNHEGEEHQETTTGTETREATEDVAPQGPAGEKQELATEPTPLDSQAATPAPAGAVDASLSAGDAAQELPPGFLYKVETLHDFEAANSDELTLQRGDVVLVVPSDSEADQDAGWLVGVKESDWLQYRDLATYKGLFPENFTRHLE |  |  | binds
AP180 (brain extract) (protein, UniProt Q05140 1-915) MSGQTLTDRIAAAQYSVTGSAVARAVCKATTHEVMGPKKKHLDYLIQATNETNVNIPQMADTLFERATNSSWVVVFKALVTTHHLMVHGNERFIQYLASRNTLFNLSNFLDKSGSHGYDMSTFIRRYSRYLNEKAFSYRQMAFDFARVKKGADGVMRTMVPEKLLKSMPILQGQIDALLEFDVHPNELTNGVINAAFMLLFKDLIKLFACYNDGVINLLEKFFEMKKGQCKDALEIYKRFLTRMTRVSEFLKVADEVGIDKGDIPDLTQAPSSLMETLEQHLNTLEGKKPGNNEGSGAPSPLSKSSPATTVTSPNSTPAKTIDTSPPVDIFATASAAAPVSSAKPSSDLLDLQPDFSGARAGAAAPVPPPTGGATAWGDLLGEDSLAALSSVPSEAPISDPFAPEPSPPTTTTEPASASASATTAVTAATTEVDLFGDAFAASPGEAPAASEGATAPATPAPVAAALDACSGNDPFAPSEGSAEAAPELDLFAMKPPETSAPVVTPTASTAPPVPATAPSPAPTAVAATAATTTAAAAATTTATTSAAAATTAAAPPALDIFGDLFDSAPEVAAASKPDVAPSIDLFGTDAFSSPPRGASPVPESSLTADLLSGSGFHCAEDDRHVPLFFTAVDAFAAPSPASTASPAKAESSGVIDLFGDAFGSSASETQPAPQAVSSSSASADLLAGFGGSFMAPSTTPVTPAQNNLLQPNFEAAFGTTPSTSSSSSFDPSGDLLMPTMAPSGQPAPVSMVPPSPAMSASKGLGSDLDSSLASLVGNLGISGTTSKKGDLQWNAGEKKLTGGANWQPKVTPATWSAGVPPQGTVPPTSSVPPGAGAPSVGQPGAGYGMPPAGTGMTMMPQQPVMFAQPMMRPPFGAAAVPGTQLSPSPTPATQSPKKPPAKDPLADLNIKDFL |  |  | binds
